Patent US20240116951A1, “HETEROCYCLIC COMPOUNDS AND USES THEREOF” (Kumquat Biosciences Inc., priority 2022, published 2024)
Some of these results come from one statement about several compounds together.

Each compound was assayed against T1, KRAS G12S (Homo sapiens, UniProt P01116, G12S) (assay: HTRF assay of K-Ras G12S interaction with SOS1 (PPI-HTRF)). Conditions: selective inhibition of K-Ras G12S relative to K-Ras G12D.
T1 construct: made in house; host or cells: E. coli, e.g. BL21 (DE3)
Assay type: binding
Text: (§1) This assay can be also used to assess a selective inhibition or reduction of signaling output of a mutant Ras protein relative to a wildtype, or relative to a different mutant Ras protein. For example, the equilibrium interaction of wildtype Kras or K-Ras mutant (e.g., wildtype or a mutant thereof including those mentioned in Example 4) with SOS1 (e.g., hSOS1) can be assessed as a proxy or an indication for a subject compound's ability to bind and inhibit Ras protein. HTRF assay detects from (i) a fluorescence resonance energy transfer (FRET) donor (e.g., antiGST-Europium) that is bound to GST-tagged K-Ras mutant to (ii) a FRET acceptor (e.g., anti-6His-XL665) bound to a His-tagged hSOS1.
(§2) The assay buffer can contain ˜5 mM HEPES pH 7.4, ˜150 mM NaCl, ˜1 mM DTT, 0.05% BSA and 0.0025% (v/v) Igepal. A Ras working solution is prepared in an assay buffer containing typically a suitable amount of the protein construct (e.g., GST-tagged K-Ras mutant) and the FRET donor (e.g., antiGST-Eu(K) from Cisbio, France). A SOS1 working solution is prepared in an assay buffer containing suitable amount of the protein construct (e.g., His-hSOS1) and the FRET acceptor (e.g., anti-6His-XL665 from Cisbio, France). A suitable amount of the protein construct will depend on the range of activity or range of IC50 values being detected or under investigation. For detecting IC50 within a range of 500 nM, the protein constructs of the same range of molarity can be utilized. […] A fixed volume of DMSO with or without test compound is transferred into a 384-well plate. Ras working solution is added to all wells of the test plate. SOS1 working solution is added to all wells except for those that are subsequently filled the inhibitor control solution. Upon incubation for about 10 minutes or longer, the fluorescence is measured with a M1000Pro plate reader (Tecan) using HTRF detection (excitation 337 nm, emission 1: 620 nm, emission 2: 665 nm). Compounds are tested in duplicates at different concentrations (for example, 10 μM, 2.5 μM, 0.63 μM, 0.16 μM, 0.04 μM, 0.01 μM test compound). The ratiometric data (i.e., emission 2 divided by emission 1) is used to calculate IC50 values against Ras using GraphPad Prism (GraphPad software). Following this general procedure, samples were tested with or without a subject compound disclosed herein including compounds exemplified in Table 1 to assess their abilities to inhibit a mutant K-Ras relative to another mutant K-Ras or wildtype K-Ras. Signaling output measured in terms of IC50 values can be obtained, a ratio of IC50 against one mutant relative to another mutant can be calculated. For instance, a selective reduction of K-Ras G12D signaling output can be evidenced by a ratio greater than one. In particular, a selective reduction of K-Ras G12D signaling relative to K-Ras WT signaling is evidenced as the ratio of IC50 (against K-Ras WT) to IC50 (against K-Ras G12D) is greater than 1.

Row | ratio of IC50 against K-Ras G12D to that of K-Ras G12S | Compound
1 | greater than 1 | Nc1nc2c(-c3c(Cl)cc4c(N5CCC6(CCN6C(=O)n6cncn6)C5)nc(OC[C@@]56CCCN5C[C@H](F)C6)nc4c3F)ccc(F)c2s1 (stereo partly drawn) [Compound 264, (6-(7-(2-amino-7-fluorobenzo[d]thiazol-4-yl)-6-chloro-8-fluoro-2-(((2R,7aS)-2-fluorotetrahydro-1H-pyrrolizin-7a(5H)-yl)methoxy)quinazolin-4-yl)-1,6-diazaspiro[3.4]octan-1-yl)(1H-1,2,4-triazol-1-yl)methanone]
2 | greater than 1 | CN1CCC[C@H]1COc1nc(N2CCC3(CC2)NC(=O)NC3=O)c2cc(Cl)c(-c3cccc4sc(N)nc34)c(F)c2n1 [Compound 249, 8-(7-(2-aminobenzo[d]thiazol-4-yl)-6-chloro-8-fluoro-2-(((S)-1-methylpyrrolidin-2-yl)methoxy)quinazolin-4-yl)-1,3,8-triazaspiro[4.5]decane-2,4-dione]
3 | greater than 1 | C[C@H](Oc1nc(N2CCC3(CCN3C(=O)[C@@H]3C[C@H]3F)C2)c2cc(Cl)c(-c3ccc(F)c4sc(N)c(C#N)c34)c(F)c2n1)[C@@H]1CCCN1C (stereo partly drawn) [Compound 271, 2-amino-4-(6-chloro-8-fluoro-4-(1-((1S,2R)-2-fluorocyclopropane-1-carbonyl)-1,6-diazaspiro[3.4]octan-6-yl)-2-((S)-1-((S)-1-methylpyrrolidin-2-yl)ethoxy)quinazolin-7-yl)-7-fluorobenzo[b]thiophene-3-carbonitrile]
4 | greater than 1 | COCC(=O)N1CCC12CCN(c1nc(O[C@@H](C)[C@@H]3CCCN3C)nc3c(F)c(-c4ccc(F)c5sc(N)c(C#N)c45)c(Cl)cc13)C2 (stereo partly drawn) [Compound 254, 2-amino-4-(6-chloro-8-fluoro-4-(1-(2-methoxyacetyl)-1,6-diazaspiro[3.4]octan-6-yl)-2-((S)-1-((S)-1-methylpyrrolidin-2-yl)ethoxy)quinazolin-7-yl)-7-fluorobenzo[b]thiophene-3-carbonitrile]
5 | greater than 1 | Nc1nc2c(-c3c(Cl)cc4c(N5CCCC6(CCN6)CC5)nc(OC[C@@]56CCCN5C[C@H](F)C6)nc4c3F)ccc(F)c2s1 (stereo partly drawn) [Compound 276, 4-(6-chloro-8-fluoro-2-(((2R,7aS)-2-fluorotetrahydro-1H-pyrrolizin-7a(5H)-yl)methoxy)-4-(1,7-diazaspiro[3.6]decan-7-yl)quinazolin-7-yl)-7-fluorobenzo[d]thiazol-2-amine]

Further lines, the compound ahead of its results:

Row | Compound | ratio of IC50 against K-Ras G12D to that of K-Ras G12S
6 | C#Cc1c(F)ccc2cc(O)cc(-c3ncc4c(N5CCC6(CCN6C(=O)n6cncn6)C5)nc(O[C@@H](C)[C@@H]5CCCN5C)nc4c3F)c12 (stereo partly drawn) [Compound 256, (6-(7-(8-ethynyl-7-fluoro-3-hydroxynaphthalen-1-yl)-8-fluoro-2-((S)-1-((S)-1-methylpyrrolidin-2-yl)ethoxy)pyrido[4,3-d]pyrimidin-4-yl)-1,6-diazaspiro[3.4]octan-1-yl)(1H-1,2,4-triazol-1-yl)methanone] | greater than 1
7 | C[C@H](Oc1nc(N2CCC3(CCN3C(=O)[C@@H]3C[C@H]3C#N)C2)c2cc(Cl)c(-c3ccc(F)c4sc(N)c(C#N)c34)c(F)c2n1)[C@@H]1CCCN1C (stereo partly drawn) [Compound 206, 2-amino-4-(6-chloro-4-(1-((1R,2R)-2-cyanocyclopropane-1-carbonyl)-1,6-diazaspiro[3.4]octan-6-yl)-8-fluoro-2-((S)-1-((S)-1-methylpyrrolidin-2-yl)ethoxy)quinazolin-7-yl)-7-fluorobenzo[b]thiophene-3-carbonitrile] | greater than 1

Each compound was assayed against T2, KRAS G12D (Homo sapiens, UniProt P01116, G12D) (assay: HTRF assay of K-Ras G12D interaction with SOS1 (PPI-HTRF)). Conditions: selective inhibition of K-Ras G12D relative to K-Ras G12S.
T2 construct: made in house; host or cells: E. coli, e.g. BL21 (DE3)
Assay type: binding
Text: as §1, §2

Row | ratio of IC50 against K-Ras G12S to that of K-Ras G12D | Compound
8 | greater than 1 | Nc1nc2c(-c3c(Cl)cc4c(N5CCC6(CCN6)CC5)nc(OC[C@@]56CCCN5C[C@H](F)C6)nc4c3F)ccc(F)c2s1 [Compound 265, 4-(6-chloro-8-fluoro-2-(((2R,7aS)-2-fluorotetrahydro-1H-pyrrolizin-7a(5H)-yl)methoxy)-4-(1,7-diazaspiro[3.5]nonan-7-yl)quinazolin-7-yl)-7-fluorobenzo[d]thiazol-2-amine]
9 | greater than 1 | Nc1nc2c(-c3c(Cl)cc4c(NC5CC6(CCN6)C5)nc(OC[C@@]56CCCN5C[C@H](F)C6)nc4c3F)ccc(F)c2s1 (stereo partly drawn) [Compound 230, 4-(4-((1-azaspiro[3.3]heptan-6-yl)amino)-6-chloro-8-fluoro-2-(((2R,7aS)-2-fluorotetrahydro-1H-pyrrolizin-7a(5H)-yl)methoxy)quinazolin-7-yl)-7-fluorobenzo[d]thiazol-2-amine]

More lines, now with the values behind:

Row | Compound | ratio of IC50 against K-Ras G12S to that of K-Ras G12D
10 | Nc1nc2c(-c3c(Cl)cc4c(N5CCCC6(CCCN6)C5)nc(OC[C@@]56CCCN5C[C@H](F)C6)nc4c3F)ccc(F)c2s1 (stereo partly drawn) [Compound 219, 4-(6-chloro-8-fluoro-2-(((2R,7aS)-2-fluorotetrahydro-1H-pyrrolizin-7a(5H)-yl)methoxy)-4-(1,7-diazaspiro[4.5]decan-7-yl)quinazolin-7-yl)-7-fluorobenzo[d]thiazol-2-amine] | greater than 1
11 | N#Cc1c(N)sc2c(F)ccc(-c3c(Cl)cc4c(N5CCCC6(CCCN6)C5)nc(OC[C@@]56CCCN5C[C@H](F)C6)nc4c3F)c12 (stereo partly drawn) [Compound 218, 2-amino-4-(6-chloro-8-fluoro-2-(((2R,7aS)-2-fluorotetrahydro-1H-pyrrolizin-7a(5H)-yl)methoxy)-4-(1,7-diazaspiro[4.5]decan-7-yl)quinazolin-7-yl)-7-fluorobenzo[b]thiophene-3-carbonitrile] | greater than 1
12 | N#Cc1c(N)sc2c(F)ccc(-c3c(Cl)cc4c(N5CCC6(CCN6)C5)nc(OC[C@@]56CCCN5C[C@H](F)C6)nc4c3F)c12 (stereo partly drawn) [Compound 212, 2-amino-4-(6-chloro-8-fluoro-2-(((2R,7aS)-2-fluorotetrahydro-1H-pyrrolizin-7a(5H)-yl)methoxy)-4-(1,6-diazaspiro[3.4]octan-6-yl)quinazolin-7-yl)-7-fluorobenzo[b]thiophene-3-carbonitrile] | greater than 1
13 | Nc1nc2c(-c3ccc4c(N5CCC6(CCN6)CC5)nc(OC[C@@]56CCCN5C[C@H](F)C6)nc4c3F)ccc(F)c2s1 [Compound 204, 7-fluoro-4-(8-fluoro-2-(((2R,7aS)-2-fluorotetrahydro-1H-pyrrolizin-7a(5H)-yl)methoxy)-4-(1,7-diazaspiro[3.5]nonan-7-yl)quinazolin-7-yl)benzo[d]thiazol-2-amine] | greater than 1
